# The list shows a part of the results.
# B1: AT1G77380(17) (Arabidopsis thaliana), Q39134 (protein)
# chain: MVQNHQTVLAVDMPQTGGSKYLDDDGKNKRTGSVWTASAHIITAVIGSGVLSLAWATAQLGWLAGPVVMLLFSAVTYFTSSLLAACYRSGDPISGKRNYTYMDAVRSNLGGVKVTLCGIVQYLNIFGVAIGYTIASAISMMAIKRSNCFHKSGGKDPCHMNSNPYMIAFGLVQILFSQIPDFDQLWWLSILAAVMSFTYSSAGLALGIAQVVVNGKVKGSLTGISIGAVTETQKIWRTFQALGDIAFAYSYSIILIEIQDTVKSPPSEEKTMKKATLVSVSVTTMFYMLCGCMGYAAFGDLSPGNLLTGFGFYNPYWLLDIANAAIVIHLIGAYQVYCQPLFAFIEKQASIQFPDSEFIAKDIKIPIPGFKPLRLNVFRLIWRTVFVIITTVISMLLPFFNDVVGLLGALGFWPLTVYFPVEMYIAQKKIPRWSTRWVCLQVFSLGCLVVSIAAAAGSIAGVLLDLKSYKPFRSEY
# How the values were obtained:
# Test in all cases: glycan array binding signal (z-score within array); higher = stronger binding
# Settings in all cases: glycan notation: IUPAC condensed, linker removed
# Fuc(a1-2)Gal = biological target: Fuc(a1-2)Gal
# In short: (§1)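 Glycan array data came from 3228 arrays in the Consortium for Functional Glycomics database, and only arrays with an available protein sequence were kept. Glycan names were put into IUPAC-condensed notation, and columns mapping to the same glycan were averaged. The binding signal is a within-array Z-score, averaged across arrays of one protein sequence run at different concentrations or buffers and across linkers. A negative Z-score can be read as non-binding.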
# Fuc(a1-2)Gal(b1-3)GalNAc = biological target: Fuc(a1-2)Gal(b1-3)GalNAc
# In short: as §1
# [1] = biological target: Fuc(a1-2)Gal(b1-3)GalNAc(a1-3)[Fuc(a1-2)]Gal(b1-4)Glc
# In short: as §1
# [2] = biological target: Fuc(a1-2)Gal(b1-3)GalNAc(a1-3)[Fuc(a1-2)]Gal(b1-4)GlcNAc
# In short: as §1
# [3] = biological target: Fuc(a1-2)Gal(b1-3)GalNAc(b1-3)Gal
# In short: as §1
# [4] = biological target: Fuc(a1-2)Gal(b1-3)GalNAc(b1-3)Gal(a1-4)Gal(b1-4)Glc
# In short: as §1
# [5] = biological target: Fuc(a1-2)Gal(b1-3)GalNAc(b1-4)[Neu5Ac(a2-3)]Gal(b1-4)Glc
# In short: as §1
# Fuc(a1-2)Gal(b1-3)GlcNAc = biological target: Fuc(a1-2)Gal(b1-3)GlcNAc
# In short: as §1
# [6] = biological target: Fuc(a1-2)Gal(b1-3)GlcNAc(b1-2)Man(a1-3)[Fuc(a1-2)Gal(b1-3)GlcNAc(b1-2)Man(a1-6)]Man(b1-4)GlcNAc(b1-4)GlcNAc
# In short: as §1
# [7] = biological target: Fuc(a1-2)Gal(b1-3)GlcNAc(b1-2)Man(a1-3)[Fuc(a1-2)Gal(b1-3)GlcNAc(b1-2)Man(a1-6)]Man(b1-4)GlcNAc(b1-4)[Fuc(a1-6)]GlcNAc
# In short: as §1
# [8] = biological target: Fuc(a1-2)Gal(b1-3)GlcNAc(b1-3)Gal(b1-4)Glc
# In short: as §1
# [9] = biological target: Fuc(a1-2)Gal(b1-3)GlcNAc(b1-3)GalNAc
# In short: as §1
# [10] = biological target: Fuc(a1-2)Gal(b1-3)GlcNAc(b1-3)[Fuc(a1-2)Gal(b1-3)GlcNAc(b1-6)]GalNAc
# In short: as §1
# [11] = biological target: Fuc(a1-2)Gal(b1-3)GlcNAc(b1-3)[Gal(b1-4)GlcNAc(b1-6)]Gal(b1-4)Glc
# In short: as §1
# [12] = biological target: Fuc(a1-2)Gal(b1-3)GlcNAc(b1-3)[Neu5Ac(a2-6)Gal(b1-4)GlcNAc(b1-6)]Gal(b1-4)Glc
# In short: as §1
# [13] = biological target: Fuc(a1-2)Gal(b1-3)GlcNAc6S
# In short: as §1
# [14] = biological target: Fuc(a1-2)Gal(b1-3)[Fuc(a1-4)]GlcNAc
# In short: as §1
# [15] = biological target: Fuc(a1-2)Gal(b1-3)[Fuc(a1-4)]GlcNAc(b1-2)Man(a1-3)[Fuc(a1-2)Gal(b1-3)[Fuc(a1-4)]GlcNAc(b1-2)Man(a1-3)]Man(b1-4)GlcNAc(b1-4)GlcNAc
# In short: as §1
# [16] = biological target: Fuc(a1-2)Gal(b1-3)[Fuc(a1-4)]GlcNAc(b1-2)Man(a1-3)[Fuc(a1-2)Gal(b1-3)[Fuc(a1-4)]GlcNAc(b1-2)Man(a1-6)]Man(b1-4)GlcNAc(b1-4)[Fuc(a1-6)]GlcNAc(b1-4)[Fuc(a1-6)]GlcNAc
# In short: as §1
# [17] = biological target: Fuc(a1-2)Gal(b1-3)[Fuc(a1-4)]GlcNAc(b1-3)[Fuc(a1-3)[Gal(b1-4)]GlcNAc(b1-6)]Gal(b1-4)Glc
# In short: as §1
# [18] = biological target: Fuc(a1-2)Gal(b1-3)[Fuc(a1-4)]GlcNAc(b1-3)[Gal(b1-4)GlcNAc(b1-6)]Gal(b1-4)Glc
# In short: as §1
# [19] = biological target: Fuc(a1-2)Gal(b1-4)Fuc(a1-3)]GlcNAc(b1-2)Man(a1-3)[Fuc(a1-2)Gal(b1-4)[Fuc(a1-3)]GlcNAc(b1-2)Man(a1-6)]Man(b1-4)GlcNAc(b1-4)GlcNAc
# In short: as §1
# Fuc(a1-2)Gal(b1-4)Glc = biological target: Fuc(a1-2)Gal(b1-4)Glc
# In short: as §1
# Fuc(a1-2)Gal(b1-4)Glc6S = biological target: Fuc(a1-2)Gal(b1-4)Glc6S
# In short: as §1
# Fuc(a1-2)Gal(b1-4)GlcNAc = biological target: Fuc(a1-2)Gal(b1-4)GlcNAc
# In short: as §1
# [20] = biological target: Fuc(a1-2)Gal(b1-4)GlcNAc(b1-2)Man
# In short: as §1
# [21] = biological target: Fuc(a1-2)Gal(b1-4)GlcNAc(b1-2)Man(a1-3)[Fuc(a1-2)Gal(b1-4)GlcNAc(b1-2)Man(a1-6)]Man(b1-4)GlcNAc(b1-4)GlcNAc
# In short: as §1
# [22] = biological target: Fuc(a1-2)Gal(b1-4)GlcNAc(b1-2)Man(a1-3)[Fuc(a1-2)Gal(b1-4)GlcNAc(b1-2)Man(a1-6)]Man(b1-4)GlcNAc(b1-4)[Fuc(a1-6)]GlcNAc
# In short: as §1
# [23] = biological target: Fuc(a1-2)Gal(b1-4)GlcNAc(b1-2)[Fuc(a1-2)Gal(b1-4)GlcNAc(b1-4)]Man(a1-3)[Fuc(a1-2)Gal(b1-4)GlcNAc(b1-2)Man(a1-6)]Man(b1-4)GlcNAc(b1-4)GlcNAc
# In short: as §1
# [24] = biological target: Fuc(a1-2)Gal(b1-4)GlcNAc(b1-3)Gal(b1-4)GlcNAc
# In short: as §1
# [25] = biological target: Fuc(a1-2)Gal(b1-4)GlcNAc(b1-3)Gal(b1-4)GlcNAc(b1-2)Man(a1-3)[Fuc(a1-2)Gal(b1-4)GlcNAc(b1-3)Gal(b1-4)GlcNAc(b1-2)Man(a1-6)]Man(b1-4)GlcNAc(b1-4)GlcNAc
# In short: as §1
# [26] = biological target: Fuc(a1-2)Gal(b1-4)GlcNAc(b1-3)Gal(b1-4)GlcNAc(b1-3)Gal(b1-4)GlcNAc
# In short: as §1
# [27] = biological target: Fuc(a1-2)Gal(b1-4)GlcNAc(b1-3)GalNAc
# In short: as §1
# [28] = biological target: Fuc(a1-2)Gal(b1-4)GlcNAc(b1-3)[Fuc(a1-2)Gal(b1-4)GlcNAc(b1-6)]GalNAc
# In short: as §1
# [29] = biological target: Fuc(a1-2)Gal(b1-4)GlcNAc(b1-3)[Fuc(a1-3)[Gal(b1-4)]GlcNAc(b1-6)]Gal(b1-4)Glc
# In short: as §1
# [30] = biological target: Fuc(a1-2)Gal(b1-4)GlcNAc(b1-6)GalNAc
# In short: as §1
# [31] = biological target: Fuc(a1-2)Gal(b1-4)GlcNAc6S
# In short: as §1
# [32] = biological target: Fuc(a1-2)Gal(b1-4)[Fuc(a1-3)]GlcNAc
# In short: as §1
# [33] = biological target: Fuc(a1-2)Gal(b1-4)[Fuc(a1-3)]GlcNAc(b1-2)Man(a1-3)[Fuc(a1-2)Gal(b1-4)[Fuc(a1-3)]GlcNAc(b1-2)Man(a1-6)]Man(b1-4)GlcNAc(b1-4)[Fuc(a1-6)]GlcNAc
# In short: as §1
# [34] = biological target: Fuc(a1-2)Gal(b1-4)[Fuc(a1-3)]GlcNAc(b1-2)[Fuc(a1-2)Gal(b1-4)[Fuc(a1-3)]GlcNAc(b1-4)]Man(a1-3)[Fuc(a1-2)Gal(b1-4)[Fuc(a1-3)]GlcNAc(b1-2)Man(a1-6)]Man(b1-4)GlcNAc(b1-4)GlcNAc
# In short: as §1
# [35] = biological target: Fuc(a1-2)Gal(b1-4)[Fuc(a1-3)]GlcNAc(b1-3)Gal(b1-4)[Fuc(a1-3)]GlcNAc
# In short: as §1
# [36] = biological target: Fuc(a1-2)Gal(b1-4)[Fuc(a1-3)]GlcNAc(b1-3)Gal(b1-4)[Fuc(a1-3)]GlcNAc(b1-3)Gal(b1-4)[Fuc(a1-3)]GlcNAc
# In short: as §1
# [37] = biological target: Fuc(a1-2)Gal(b1-4)[Fuc(a1-3)]GlcNAc(b1-3)GalNAc
# In short: as §1
# [38] = biological target: Fuc(a1-2)Gal(b1-4)[Fuc(a1-3)]GlcNAc(b1-3)[Neu5Ac(a2-6)Gal(b1-4)GlcNAc(b1-6)]Gal(b1-4)Glc
# In short: as §1
# [39] = biological target: Fuc(a1-2)Gal3S(b1-4)GlcNAc
# In short: as §1
binder,measurement,setting,value
B1,glycan array binding signal (z-score),Fuc(a1-2)Gal,2.99
same,glycan array binding signal (z-score),Fuc(a1-2)Gal(b1-3)GalNAc,-0.359
same,glycan array binding signal (z-score),[1],0.048
same,glycan array binding signal (z-score),[2],2.89
same,glycan array binding signal (z-score),[3],0.084
same,glycan array binding signal (z-score),[4],0.14
same,glycan array binding signal (z-score),[5],-0.032
same,glycan array binding signal (z-score),Fuc(a1-2)Gal(b1-3)GlcNAc,-0.752
same,glycan array binding signal (z-score),[6],-0.686
same,glycan array binding signal (z-score),[7],-0.155
same,glycan array binding signal (z-score),[8],-0.305
same,glycan array binding signal (z-score),[9],-0.512
same,glycan array binding signal (z-score),[10],-0.692
same,glycan array binding signal (z-score),[11],-0.428
same,glycan array binding signal (z-score),[12],-0.856
same,glycan array binding signal (z-score),[13],-0.056
same,glycan array binding signal (z-score),[14],-0.771
same,glycan array binding signal (z-score),[15],0.75
same,glycan array binding signal (z-score),[16],-0.683
same,glycan array binding signal (z-score),[17],-0.82
same,glycan array binding signal (z-score),[18],-0.383
same,glycan array binding signal (z-score),[19],0.751
same,glycan array binding signal (z-score),Fuc(a1-2)Gal(b1-4)Glc,0.457
same,glycan array binding signal (z-score),Fuc(a1-2)Gal(b1-4)Glc6S,-0.205
same,glycan array binding signal (z-score),Fuc(a1-2)Gal(b1-4)GlcNAc,0.26
same,glycan array binding signal (z-score),[20],-0.431
same,glycan array binding signal (z-score),[21],-0.43
same,glycan array binding signal (z-score),[22],-0.797
same,glycan array binding signal (z-score),[23],-0.759
same,glycan array binding signal (z-score),[24],-0.766
same,glycan array binding signal (z-score),[25],-0.469
same,glycan array binding signal (z-score),[26],-0.084
same,glycan array binding signal (z-score),[27],0.521
same,glycan array binding signal (z-score),[28],-0.495
same,glycan array binding signal (z-score),[29],2.76
same,glycan array binding signal (z-score),[30],-0.513
same,glycan array binding signal (z-score),[31],-0.166
same,glycan array binding signal (z-score),[32],-0.89
same,glycan array binding signal (z-score),[33],-0.175
same,glycan array binding signal (z-score),[34],-0.413
same,glycan array binding signal (z-score),[35],-0.559
same,glycan array binding signal (z-score),[36],-0.148
same,glycan array binding signal (z-score),[37],0.277
same,glycan array binding signal (z-score),[38],1.42
same,glycan array binding signal (z-score),[39],0.734

# Two consecutive entries out of the list so far:
binder,measurement,setting,value
B1,glycan array binding signal (z-score),[17],-0.82
same,glycan array binding signal (z-score),[18],-0.383

# Source: the supplement of paper PMC8728848
